The values below are quoted from earlier work in US6458347B1, “Drug complex” (Asahi Kasei Kabushiki Kaisha, priority 1996, dated 2002).

The conditions of the data set: reported, Nature, 365, 464-466 (1993); cited from earlier work.

`CC(=O)O[C@H]1C(=O)[C@@]2(C)[C@H]([C@H](OC(=O)c3ccccc3)[C@]3(O)C[C@H](OC(=O)[C@H](O)[C@@H](NC(=O)c4ccccc4)c4ccccc4)C(C)=C1C3(C)C)[C@]1(OC(C)=O)CO[C@@H]1C[C@@H]2O` [paclitaxel]: the water-solubility entry is given as “less than 0.004 mg/ml”.
